This is one part of the list. Most entries show no effect beyond the scatter of the controls.

Sequences of proteins named here, by UniProt entry; tags and fusion partners are left off. A change or cut given only in a name is not applied to a line headed by its entry.
UniProt O75380, whole entry: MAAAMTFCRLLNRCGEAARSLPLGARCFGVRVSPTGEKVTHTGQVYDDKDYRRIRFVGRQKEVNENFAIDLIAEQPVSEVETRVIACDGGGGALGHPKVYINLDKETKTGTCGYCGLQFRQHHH
UniProt O60506: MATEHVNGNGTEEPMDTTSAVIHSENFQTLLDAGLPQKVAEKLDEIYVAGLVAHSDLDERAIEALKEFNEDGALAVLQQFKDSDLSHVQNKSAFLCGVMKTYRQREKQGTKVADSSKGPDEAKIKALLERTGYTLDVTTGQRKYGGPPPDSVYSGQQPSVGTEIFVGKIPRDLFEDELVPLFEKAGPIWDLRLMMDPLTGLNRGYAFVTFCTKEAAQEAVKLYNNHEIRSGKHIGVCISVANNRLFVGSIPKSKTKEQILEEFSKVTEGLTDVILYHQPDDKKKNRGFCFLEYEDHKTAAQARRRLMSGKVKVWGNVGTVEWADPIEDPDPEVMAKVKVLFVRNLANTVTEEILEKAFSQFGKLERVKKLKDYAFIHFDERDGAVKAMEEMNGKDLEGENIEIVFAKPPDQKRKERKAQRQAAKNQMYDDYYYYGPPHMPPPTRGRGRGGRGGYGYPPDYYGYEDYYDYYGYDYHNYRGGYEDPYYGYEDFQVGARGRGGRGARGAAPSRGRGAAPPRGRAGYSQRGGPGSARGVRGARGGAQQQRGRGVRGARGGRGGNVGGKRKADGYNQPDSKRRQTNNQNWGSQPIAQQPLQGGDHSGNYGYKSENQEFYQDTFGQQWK
UniProt O75251, whole entry: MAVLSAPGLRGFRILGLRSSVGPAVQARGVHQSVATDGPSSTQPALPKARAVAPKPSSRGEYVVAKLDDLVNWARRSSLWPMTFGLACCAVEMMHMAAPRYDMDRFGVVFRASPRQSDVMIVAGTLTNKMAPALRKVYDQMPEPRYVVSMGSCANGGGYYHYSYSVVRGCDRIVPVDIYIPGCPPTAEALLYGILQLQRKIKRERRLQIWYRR
UniProt O43187: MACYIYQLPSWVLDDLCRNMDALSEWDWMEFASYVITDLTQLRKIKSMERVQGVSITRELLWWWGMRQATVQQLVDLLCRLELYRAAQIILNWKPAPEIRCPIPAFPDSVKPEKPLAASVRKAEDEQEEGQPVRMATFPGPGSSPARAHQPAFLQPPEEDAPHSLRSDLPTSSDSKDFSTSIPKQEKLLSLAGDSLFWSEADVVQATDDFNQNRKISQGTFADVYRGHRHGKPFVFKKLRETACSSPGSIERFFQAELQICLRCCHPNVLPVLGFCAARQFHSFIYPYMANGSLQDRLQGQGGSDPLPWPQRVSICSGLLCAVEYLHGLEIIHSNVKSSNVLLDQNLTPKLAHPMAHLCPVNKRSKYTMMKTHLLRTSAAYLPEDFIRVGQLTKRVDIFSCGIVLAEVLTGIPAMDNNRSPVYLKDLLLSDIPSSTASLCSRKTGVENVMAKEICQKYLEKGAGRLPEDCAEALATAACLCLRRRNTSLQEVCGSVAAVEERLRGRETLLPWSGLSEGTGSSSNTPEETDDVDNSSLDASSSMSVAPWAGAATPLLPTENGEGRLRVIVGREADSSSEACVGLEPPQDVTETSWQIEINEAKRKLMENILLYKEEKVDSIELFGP
UniProt O60333: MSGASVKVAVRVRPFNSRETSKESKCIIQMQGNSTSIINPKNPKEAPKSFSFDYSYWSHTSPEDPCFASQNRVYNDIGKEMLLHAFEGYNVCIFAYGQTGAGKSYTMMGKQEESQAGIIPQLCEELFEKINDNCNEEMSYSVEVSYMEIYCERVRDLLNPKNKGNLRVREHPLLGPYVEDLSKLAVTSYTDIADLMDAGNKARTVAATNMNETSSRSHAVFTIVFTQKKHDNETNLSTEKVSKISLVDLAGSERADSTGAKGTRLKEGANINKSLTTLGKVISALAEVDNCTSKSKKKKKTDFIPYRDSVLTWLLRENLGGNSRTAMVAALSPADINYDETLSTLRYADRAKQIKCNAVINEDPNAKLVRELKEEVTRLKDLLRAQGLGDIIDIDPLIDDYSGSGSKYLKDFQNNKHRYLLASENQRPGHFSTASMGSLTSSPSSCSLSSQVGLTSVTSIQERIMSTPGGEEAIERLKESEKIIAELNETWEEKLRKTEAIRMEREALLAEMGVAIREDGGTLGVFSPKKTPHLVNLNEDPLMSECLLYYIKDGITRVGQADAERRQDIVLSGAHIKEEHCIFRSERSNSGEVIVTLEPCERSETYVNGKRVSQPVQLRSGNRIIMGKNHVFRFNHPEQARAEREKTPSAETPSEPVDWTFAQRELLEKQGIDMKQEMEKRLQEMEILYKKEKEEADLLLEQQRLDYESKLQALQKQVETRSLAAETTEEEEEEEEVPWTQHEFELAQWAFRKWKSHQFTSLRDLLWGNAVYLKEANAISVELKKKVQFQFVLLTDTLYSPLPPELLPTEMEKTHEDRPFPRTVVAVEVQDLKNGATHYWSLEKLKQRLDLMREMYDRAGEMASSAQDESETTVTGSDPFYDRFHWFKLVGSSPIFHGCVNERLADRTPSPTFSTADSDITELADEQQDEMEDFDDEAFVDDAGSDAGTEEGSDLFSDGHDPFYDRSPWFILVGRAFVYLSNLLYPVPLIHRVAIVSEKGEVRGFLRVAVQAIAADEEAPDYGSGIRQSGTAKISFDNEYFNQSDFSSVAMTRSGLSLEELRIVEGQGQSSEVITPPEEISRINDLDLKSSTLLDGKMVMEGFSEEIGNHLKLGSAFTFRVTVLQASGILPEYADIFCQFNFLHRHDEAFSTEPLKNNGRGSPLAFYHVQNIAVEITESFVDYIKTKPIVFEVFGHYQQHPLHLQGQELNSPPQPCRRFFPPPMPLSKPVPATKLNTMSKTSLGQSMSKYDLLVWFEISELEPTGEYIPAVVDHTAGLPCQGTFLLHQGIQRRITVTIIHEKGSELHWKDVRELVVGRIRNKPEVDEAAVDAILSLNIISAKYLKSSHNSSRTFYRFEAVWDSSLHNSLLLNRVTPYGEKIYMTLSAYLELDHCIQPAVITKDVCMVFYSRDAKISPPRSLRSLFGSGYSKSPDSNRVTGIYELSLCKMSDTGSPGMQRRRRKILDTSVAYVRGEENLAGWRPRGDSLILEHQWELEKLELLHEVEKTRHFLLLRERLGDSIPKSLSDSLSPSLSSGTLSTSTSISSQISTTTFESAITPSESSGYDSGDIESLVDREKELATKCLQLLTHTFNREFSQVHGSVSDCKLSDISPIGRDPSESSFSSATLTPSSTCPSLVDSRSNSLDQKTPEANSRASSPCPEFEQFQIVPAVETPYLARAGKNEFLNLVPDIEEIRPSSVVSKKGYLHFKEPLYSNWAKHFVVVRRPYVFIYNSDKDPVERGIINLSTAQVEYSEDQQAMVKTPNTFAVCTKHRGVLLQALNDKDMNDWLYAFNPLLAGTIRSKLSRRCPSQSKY
UniProt O15541: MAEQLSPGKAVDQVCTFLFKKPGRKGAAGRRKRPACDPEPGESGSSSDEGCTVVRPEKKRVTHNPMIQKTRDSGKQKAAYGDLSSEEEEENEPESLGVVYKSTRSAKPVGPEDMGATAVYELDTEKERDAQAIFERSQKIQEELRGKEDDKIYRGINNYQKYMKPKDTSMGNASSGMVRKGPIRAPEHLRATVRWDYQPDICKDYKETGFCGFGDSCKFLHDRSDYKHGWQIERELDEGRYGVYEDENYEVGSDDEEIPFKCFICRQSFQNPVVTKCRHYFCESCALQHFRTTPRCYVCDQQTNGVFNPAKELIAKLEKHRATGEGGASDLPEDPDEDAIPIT
UniProt O60784, whole entry: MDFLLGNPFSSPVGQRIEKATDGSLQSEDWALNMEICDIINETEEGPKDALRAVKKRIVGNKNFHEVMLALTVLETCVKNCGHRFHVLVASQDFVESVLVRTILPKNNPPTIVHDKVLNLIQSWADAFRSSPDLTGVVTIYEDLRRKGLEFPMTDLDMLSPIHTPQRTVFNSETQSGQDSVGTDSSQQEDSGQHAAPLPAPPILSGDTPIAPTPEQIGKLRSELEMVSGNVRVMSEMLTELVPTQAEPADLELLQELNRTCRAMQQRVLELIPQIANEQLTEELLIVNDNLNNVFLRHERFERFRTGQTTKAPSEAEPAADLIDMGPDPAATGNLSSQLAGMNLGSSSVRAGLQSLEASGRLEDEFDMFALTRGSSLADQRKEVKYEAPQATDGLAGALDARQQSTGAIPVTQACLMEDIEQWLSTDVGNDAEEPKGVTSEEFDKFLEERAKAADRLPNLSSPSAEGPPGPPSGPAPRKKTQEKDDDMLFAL
UniProt O43617, whole entry: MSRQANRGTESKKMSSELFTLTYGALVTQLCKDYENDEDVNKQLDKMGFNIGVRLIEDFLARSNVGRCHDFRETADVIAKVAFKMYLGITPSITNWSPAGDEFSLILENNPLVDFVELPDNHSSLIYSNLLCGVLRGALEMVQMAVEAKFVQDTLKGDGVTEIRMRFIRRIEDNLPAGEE
UniProt O43542: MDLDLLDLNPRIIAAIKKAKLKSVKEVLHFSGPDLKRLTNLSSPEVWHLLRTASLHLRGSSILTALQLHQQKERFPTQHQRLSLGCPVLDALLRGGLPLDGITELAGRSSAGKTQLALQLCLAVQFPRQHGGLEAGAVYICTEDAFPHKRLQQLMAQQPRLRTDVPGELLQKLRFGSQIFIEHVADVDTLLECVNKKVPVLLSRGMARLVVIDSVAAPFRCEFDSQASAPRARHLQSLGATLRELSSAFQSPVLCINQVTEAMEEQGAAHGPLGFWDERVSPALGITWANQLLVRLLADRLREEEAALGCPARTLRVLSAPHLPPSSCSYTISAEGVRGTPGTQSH
UniProt O43296: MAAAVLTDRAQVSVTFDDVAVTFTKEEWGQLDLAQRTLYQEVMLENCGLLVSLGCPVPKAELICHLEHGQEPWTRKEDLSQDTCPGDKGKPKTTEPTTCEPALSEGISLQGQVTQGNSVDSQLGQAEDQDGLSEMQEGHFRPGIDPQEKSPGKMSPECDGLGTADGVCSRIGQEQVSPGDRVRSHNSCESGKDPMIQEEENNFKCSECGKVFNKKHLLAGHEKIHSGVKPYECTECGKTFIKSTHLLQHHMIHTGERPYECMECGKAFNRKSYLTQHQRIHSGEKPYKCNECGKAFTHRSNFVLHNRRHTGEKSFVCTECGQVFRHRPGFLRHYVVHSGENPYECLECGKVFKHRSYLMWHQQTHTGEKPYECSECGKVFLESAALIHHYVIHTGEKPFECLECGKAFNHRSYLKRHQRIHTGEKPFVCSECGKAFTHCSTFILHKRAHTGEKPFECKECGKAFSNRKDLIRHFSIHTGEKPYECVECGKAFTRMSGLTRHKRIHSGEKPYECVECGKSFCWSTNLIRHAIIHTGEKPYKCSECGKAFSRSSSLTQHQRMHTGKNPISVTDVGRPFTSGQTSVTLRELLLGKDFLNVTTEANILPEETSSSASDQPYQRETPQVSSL
UniProt O75083: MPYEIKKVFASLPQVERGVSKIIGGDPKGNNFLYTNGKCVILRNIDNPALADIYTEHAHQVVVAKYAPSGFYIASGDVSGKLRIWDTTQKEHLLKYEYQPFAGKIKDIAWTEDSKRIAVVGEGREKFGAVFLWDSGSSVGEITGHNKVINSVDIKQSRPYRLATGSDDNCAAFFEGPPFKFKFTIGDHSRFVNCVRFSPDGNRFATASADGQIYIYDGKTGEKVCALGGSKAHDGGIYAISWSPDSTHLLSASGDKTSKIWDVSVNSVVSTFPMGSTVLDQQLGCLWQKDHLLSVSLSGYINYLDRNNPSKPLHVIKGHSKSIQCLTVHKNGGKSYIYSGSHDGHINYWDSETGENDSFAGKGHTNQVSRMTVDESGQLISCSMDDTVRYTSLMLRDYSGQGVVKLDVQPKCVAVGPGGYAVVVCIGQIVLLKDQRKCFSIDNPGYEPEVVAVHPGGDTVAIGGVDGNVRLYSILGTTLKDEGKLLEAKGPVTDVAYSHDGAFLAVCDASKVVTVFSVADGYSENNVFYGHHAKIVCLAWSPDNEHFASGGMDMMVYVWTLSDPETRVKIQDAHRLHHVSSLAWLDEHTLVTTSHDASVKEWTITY

Compound in the test: CN[C@@H]1C[C@H]2O[C@@](C)([C@@H]1OC)n1c3ccccc3c3c4c(c5c6ccccc6n2c5c31)C(=O)NC4 [staurosporine]
Nature of the test: log2 fold change of tryptic peptide abundance, ligand vs vehicle (limited proteolysis) (log2 ratio); higher = more trypsin-susceptible (destabilized). The note with it: ligand concentration: 20 uM; sample: K562 cleared lysate; digestion: 4 min, 22 C (HT-PELSA RT4min, Orbitrap Astral).
With “NDUFS6 (peptide sequence: VTHTGQVYDDKDYR, peptide start residue: 39) (UniProt O75380)”, the log2 fold change is -0.0878.

“IDH3B (peptide sequence: IHTPMEYK, peptide start residue: 115) (UniProt O43837)”: the log2 fold change is 0.223.

Consider “SYNCRIP (peptide sequence: KLKDYAFIHFDER, peptide start residue: 369) (UniProt O60506)”, for which the log2 fold change was -0.4.

Regarding “SNX3 (peptide sequence: LKESTVRR, peptide start residue: 62) (UniProt O60493)”, the log2 fold change came to 1.17.

“HTATSF1 (peptide sequence: GFEGSCSQKESEEGNPVR, peptide start residue: 475) (UniProt O43719)”: the log2 fold change is -0.199.

“PAPSS1 (peptide sequence: TDAETLPALK, peptide start residue: 249) (UniProt O43252)”: the log2 fold change was -0.322.

As to “NDUFS7 (peptide sequence: KVYDQMPEPR, peptide start residue: 136) (UniProt O75251)”, the log2 fold change was -0.181.

Regarding “UniProt O43187 (peptide sequence: ETACSSPGSIER, peptide start residue: 241)”, the log2 fold change turned out to be 0.542.

With “UniProt O43310 (peptide sequence: HPPGDKGEAGAHR, peptide start residue: 257)”, the log2 fold change stood at 0.386.

For “TXNL1 (peptide sequence: IFINLPR, peptide start residue: 196) (UniProt O43396)”, the log2 fold change was 0.114.

As for “KPNA6 (peptide sequence: NNALNPEEMRR, peptide start residue: 19) (UniProt O60684)”, the log2 fold change is -0.164.

With “UniProt O75161 (peptide sequence: FSGGSLLTTGSSR, peptide start residue: 858)”, the log2 fold change is -0.411.

As for “GATC (peptide sequence: ITAAVIEHLER, peptide start residue: 32) (UniProt O43716)”, the log2 fold change was found to be 0.474.

Consider “SSNA1 (peptide sequence: CIEELCQK, peptide start residue: 18) (UniProt O43805)”, for which the log2 fold change was -0.106.

Consider “SEPTIN4 (peptide sequence: VNIVPILAK, peptide start residue: 282) (UniProt O43236)”, for which the log2 fold change was -0.193.

Take “BRD4 (peptide sequence: PVIRPPEQNAPPPGAPDKDK, peptide start residue: 1160) (UniProt O60885)”: the log2 fold change came out at 1.1.

For the target “UniProt O43299 (peptide sequence: HLLPVMAK, peptide start residue: 152)”, the log2 fold change was 0.569.

On to “DEPDC5 (peptide sequence: CLGEQQAAVHGGK, peptide start residue: 1053) (UniProt O75140)”, for which the log2 fold change was -0.615.

“KIF1B (peptide sequence: EFSQVHGSVSDCK, peptide start residue: 1596) (UniProt O60333)”: the log2 fold change was -0.327.

With “PFKFB2 (peptide sequence: YLNWIGVPTK, peptide start residue: 61) (UniProt O60825)”, the log2 fold change was -0.301.

As to “TSC22D2 (peptide sequence: HSSTFDQTAER, peptide start residue: 204) (UniProt O75157)”, the log2 fold change was found to be 0.184.

As for “SYNJ1 (peptide sequence: ALLTTGSLR, peptide start residue: 495) (UniProt O43426)”, the log2 fold change was -0.228.

For “RNF113A (peptide sequence: AVDQVCTFLFKKPGR, peptide start residue: 10) (UniProt O15541)”, the log2 fold change was -0.365.

For the target “ATP9B (peptide sequence: AAYYSAAGPRPGADR, peptide start residue: 23) (UniProt O43861)”, the log2 fold change is -0.166.

Take “TOM1 (peptide sequence: LRSELEMVSGNVR, peptide start residue: 220) (UniProt O60784)”: the log2 fold change turned out to be 0.259.

Turning to “PDE8A (peptide sequence: IIPVIGQGGK, peptide start residue: 306) (UniProt O60658)”, the log2 fold change was -0.208.

“CFAP410 (peptide sequence: VLWLAENPCCGTSPHR, peptide start residue: 91) (UniProt O43822)”: the log2 fold change was -0.53.

Turning to “TRAPPC3 (peptide sequence: RIEDNLPAGEE, peptide start residue: 170) (UniProt O43617)”, the log2 fold change amounted to 0.143.

For “XRCC3 (peptide sequence: EVLHFSGPDLK, peptide start residue: 26) (UniProt O43542)”, the log2 fold change is -0.457.

As to “SORBS3 (peptide sequence: ELTLQKGDIVYIHK, peptide start residue: 398) (UniProt O60504)”, the log2 fold change is -0.481.

As to “UniProt O43296 (peptide sequence: HFSIHTGEKPYECVECGK, peptide start residue: 466)”, the log2 fold change is -0.164.

For “PPP1R12B (peptide sequence: GSLTEQEPAER, peptide start residue: 28) (UniProt O60237)”, the log2 fold change is -0.45.

With “PHACTR2 (peptide sequence: KLSLRPTVAELQAR, peptide start residue: 558) (UniProt O75167)”, the log2 fold change turned out to be 0.285.

As to “WDR1 (peptide sequence: YTSLMLR, peptide start residue: 390) (UniProt O75083)”, the log2 fold change is -0.389.

Take “UniProt O60613 (peptide sequence: LLDDNGNIAEELSILK, peptide start residue: 133)”: the log2 fold change turned out to be 0.267.

Regarding “DPM1 (peptide sequence: HATGNYIIIMDADLSHHPK, peptide start residue: 108) (UniProt O60762)”, the log2 fold change came out at 0.347.

(Values after the supplement of paper PMC12819154, “High-throughput peptide-centric local stability assay extends protein–ligand identification to membrane proteins, tissues and bacteria” (Nature Structural & Molecular Biology, 2025).)
